Results are given in words; binding and its absence hold for the method and conditions named. A result given as binding can be weak or reduced; the word gives no strength.
How the values were obtained:
[1] = biological target: collagen; assay: fluorescence plate binding assay, dansyl peptide on collagen-coated 96-well high-binding plate, ex/em 335/490 nm
[2] = biological target: collagen; assay: fluorescence plate binding assay, dansyl peptide on collagen-coated wells, curve fitted to the data of FIG. 3

binding [1]: binds
binding [2]: binds
Binder: GRRANAALKAGELYKSILYGC (dansyl on the N-terminal Gly (dansylglycine added to the amine terminus)) [Dansyl-…]

From US20150038427A1
